Test results: article PMC3781157
No constants are given. Whether binding was seen depends on the method and setting. Binding can be weak; no strength is given.

How the values were obtained:
GST-Rac1ΔC = assay: pull-down; GST-GTPase as bait, loaded with GDP or GppNHp overnight at 4°C; purified HMHA1 without GST tag as prey; bound HMHA1 detected by Western blot with anti-HMHA1; both purified
GST-RhoAΔC = assay: as above

B1: HMHA1 full-length (protein, UniProt Q92619 1-1136)
chain: MFSRKKRELMKTPSISKKNRAGSPSPQPSGELPRKDGADAVFPGPSLEPPAGSSGVKATGTLKRPTSLSRHASAAGFPLSGAASWTLGRSHRSPLTAASPGELPTEGAGPDVVEDISHLLADVARFAEGLEKLKECVLRDDLLEARRPRAHECLGEALRVMHQIISKYPLLNTVETLTAAGTLIAKVKAFHYESNNDLEKQEFEKALETIAVAFSSTVSEFLMGEVDSSTLLAVPPGDSSQSMESLYGPGSEGTPPSLEDCDAGCLPAEEVDVLLQRCEGGVDAALLYAKNMAKYMKDLISYLEKRTTLEMEFAKGLQKIAHNCRQSVMQEPHMPLLSIYSLALEQDLEFGHSMVQAVGTLQTQTFMQPLTLRRLEHEKRRKEIKEAWHRAQRKLQEAESNLRKAKQGYVQRCEDHDKARFLVAKAEEEQAGSAPGAGSTATKTLDKRRRLEEEAKNKAEEAMATYRTCVADAKTQKQELEDTKVTALRQIQEVIRQSDQTIKSATISYYQMMHMQTAPLPVHFQMLCESSKLYDPGQQYASHVRQLQRDQEPDVHYDFEPHVSANAWSPVMRARKSSFNVSDVARPEAAGSPPEEGGCTEGTPAKDHRAGRGHQVHKSWPLSISDSDSGLDPGPGAGDFKKFERTSSSGTMSSTEELVDPDGGAGASAFEQADLNGMTPELPVAVPSGPFRHEGLSKAARTHRLRKLRTPAKCRECNSYVYFQGAECEECCLACHKKCLETLAIQCGHKKLQGRLQLFGQDFSHAARSAPDGVPFIVKKCVCEIERRALRTKGIYRVNGVKTRVEKLCQAFENGKELVELSQASPHDISNVLKLYLRQLPEPLISFRLYHELVGLAKDSLKAEAEAKAASRGRQDGSESEAVAVALAGRLRELLRDLPPENRASLQYLLRHLRRIVEVEQDNKMTPGNLGIVFGPTLLRPRPTEATVSLSSLVDYPHQARVIETLIVHYGLVFEEEPEETPGGQDESSNQRAEVVVQVPYLEAGEAVVYPLQEAAADGCRESRVVSNDSDSDLEEASELLSSSEASALGHLSFLEQQQSEASLEVASGSHSGSEEQLEATAREDGDGDEDGPAQQLSGFNTNQSNNVLQAPLPPMRLRGGRMTLGSCRERQPEFV
GST-Rac1ΔC
  binding: binds
GST-RhoAΔC
  binding: binds
